{"source": "patent US20050154192A1", "about": "(published 2005)", "binders": {"B1": {"name": "F997-13-1 antibody (antibody, IgG1, V domains shown)", "VH": "EVKLQQSGGGLVQPGRSMKLSCAASGFTFSNYGMAWVRQAPKKGLEWVAYISYDGGSTYYRDSVKGRFTISRDNAKSTLYLQMDSLRSEDTATYHCTTPHYGYKYWYFDFWGQGTTVTVSS", "VL": "DIQMTQSPASLSASLGETVTIECRASEDIYNGLAWYQQKPGKSPQLLIYHANSSHTGVPSRFSGSGSGTQYSLKIDSLQSEDVANYFCQQYYDYPTFGAGTKLELKR"}}, "target": "T1, Recombinant Human IL13 Rα2/Fc Chimera (R&D) (human) (UniProt Q14627)", "T1 sequence (looked up)": "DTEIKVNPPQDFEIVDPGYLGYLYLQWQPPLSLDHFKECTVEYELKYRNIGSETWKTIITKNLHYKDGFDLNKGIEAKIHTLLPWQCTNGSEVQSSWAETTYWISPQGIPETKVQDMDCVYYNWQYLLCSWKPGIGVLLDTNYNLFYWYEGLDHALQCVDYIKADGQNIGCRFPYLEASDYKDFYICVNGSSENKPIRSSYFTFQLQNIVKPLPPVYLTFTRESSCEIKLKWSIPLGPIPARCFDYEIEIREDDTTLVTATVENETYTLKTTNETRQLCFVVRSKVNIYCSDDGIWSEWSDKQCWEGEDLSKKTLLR", "assay": "SPR (BIACORE2000), chimera captured on Ni-NTA chip", "note": "Results are given in words; binding and its absence hold for the method and conditions named. Tags and fused reporters may be left off the sequences shown."}
{"binder": "B1", "values": [{"measurement": "binding", "value": "no binding (tested: RU < 50; antibody 50 µg/ml)"}]}
